Measured data: PubChem BioAssay AID1117269 (University of Michigan, 2014)
Purpose: 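Which kinase knockdowns increase BTR reporter light after TGF-beta stimulation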 (primary screen). Cell system: human A549 lung cancer and 1833 breast cancer (MDA-MB-231-derived) cell lines carrying a stable BTR luciferase reporter. Reagent: siRNA pool against human genes. Time to read-out: 72 h after transfection, then 1 h TGF-beta before the read. Challenge: TGF-beta 10 ng/mL added one hour before luciferin and read-out. Measurement: 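BTR reporter bioluminescence as fold change relative to non-targeting siRNA, averaging triplicates per line; knockdown for 72 h, then TGF-beta at 10 ng/mL 1 h prior to reading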. Reading the numbers: fold over scrambled siRNA, A549 and fold over scrambled siRNA, 1833: higher = more reporter light, weaker TGF-beta receptor signalling. Active means: 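Active if a hit in A549 or 1833; a line's hit exceeds an upper quartile-based cutoff on mean log fold values, applied per plate and across the whole screen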. Calls: active = hit in at least one line; inactive = hit in neither line.
The deposit covers 714 reagents; shown is a random part of them. Of all reagents, 49 (6.9%) got an active call. 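Active means a hit in at least one line; per-line hit columns show which; some siRNA pools appear more than once.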 A number with no mark means an inactive call. Reagent sequences are not shown. Not stated in the record: the amount of reagent.

After knock-down of DGKK, the screen gave fold over scrambled siRNA, A549 = 4.85; fold over scrambled siRNA, 1833 = 1.9; hit in A549 = not a hit in A549; hit in 1833 = not a hit in 1833.
Silencing of BMP2K resulted in: fold over scrambled siRNA, A549 = 2.28; fold over scrambled siRNA, 1833 = 1.8; hit in A549 = not a hit in A549; hit in 1833 = not a hit in 1833.
Silencing of RIPK1 resulted in: fold over scrambled siRNA, A549 = 2.3; fold over scrambled siRNA, 1833 = 2.67; hit in A549 = not a hit in A549; hit in 1833 = not a hit in 1833.
Against EPHA10, the entry reads fold over scrambled siRNA, A549 = 2.68; fold over scrambled siRNA, 1833 = 4.93; hit in A549 = not a hit in A549; hit in 1833 = not a hit in 1833.
Against MAPK10, the values are fold over scrambled siRNA, A549 = 1.29; fold over scrambled siRNA, 1833 = 7.33; hit in A549 = not a hit in A549; hit in 1833 = not a hit in 1833.
Against CSNK2A1, the entry reads fold over scrambled siRNA, A549 = 2.86; fold over scrambled siRNA, 1833 = 4.97; hit in A549 = not a hit in A549; hit in 1833 = not a hit in 1833.
Against FN3K, the values are fold over scrambled siRNA, A549 = 2.67; fold over scrambled siRNA, 1833 = 3.9; hit in A549 = not a hit in A549; hit in 1833 = not a hit in 1833.
Against PRKY, the values are fold over scrambled siRNA, A549 = 0.869; fold over scrambled siRNA, 1833 = 2.22; hit in A549 = not a hit in A549; hit in 1833 = not a hit in 1833.
For DGKA the deposit lists fold over scrambled siRNA, A549 = 1.78; fold over scrambled siRNA, 1833 = 1.13; hit in A549 = not a hit in A549; hit in 1833 = not a hit in 1833.
CKM scored fold over scrambled siRNA, A549 = 0.571; fold over scrambled siRNA, 1833 = 2.38; hit in A549 = not a hit in A549; hit in 1833 = not a hit in 1833.
Against CIB2 the deposit lists fold over scrambled siRNA, A549 = 0.553; fold over scrambled siRNA, 1833 = 1.87; hit in A549 = not a hit in A549; hit in 1833 = not a hit in 1833.
CDKL1 gave fold over scrambled siRNA, A549 = 0.905; fold over scrambled siRNA, 1833 = 0.849; hit in A549 = not a hit in A549; hit in 1833 = not a hit in 1833.
Depletion of STK39 came out at: fold over scrambled siRNA, A549 = 2.99; fold over scrambled siRNA, 1833 = 3.93; hit in A549 = not a hit in A549; hit in 1833 = not a hit in 1833.

2 consecutive records from above, for reference:
DGKK → fold over scrambled siRNA, A549: 4.85; fold over scrambled siRNA, 1833: 1.9; hit in A549: not a hit in A549; hit in 1833: not a hit in 1833
BMP2K → fold over scrambled siRNA, A549: 2.28; fold over scrambled siRNA, 1833: 1.8; hit in A549: not a hit in A549; hit in 1833: not a hit in 1833

The list goes on.
With knock-down of RAF1, the record shows fold over scrambled siRNA, A549 = 3.19; fold over scrambled siRNA, 1833 = 4.35; hit in A549 = not a hit in A549; hit in 1833 = not a hit in 1833.
After knock-down of PACSIN1 the results were fold over scrambled siRNA, A549 = 1.84; fold over scrambled siRNA, 1833 = 2.77; hit in A549 = not a hit in A549; hit in 1833 = not a hit in 1833.
After knock-down of GCK, the screen gave fold over scrambled siRNA, A549 = 1.5; fold over scrambled siRNA, 1833 = 1.13; hit in A549 = not a hit in A549; hit in 1833 = not a hit in 1833.
After knock-down of THNSL1 the results were fold over scrambled siRNA, A549 = 3.52; fold over scrambled siRNA, 1833 = 4.9; hit in A549 = not a hit in A549; hit in 1833 = not a hit in 1833.
With knock-down of EPHA3, the screen gave fold over scrambled siRNA, A549 = 1.36; fold over scrambled siRNA, 1833 = 3.01; hit in A549 = not a hit in A549; hit in 1833 = not a hit in 1833.
After knock-down of PXK the results were fold over scrambled siRNA, A549 = 1.69; fold over scrambled siRNA, 1833 = 2.22; hit in A549 = not a hit in A549; hit in 1833 = not a hit in 1833.
Silencing of STK11 came out at: fold over scrambled siRNA, A549 = 0.634; fold over scrambled siRNA, 1833 = 1.27; hit in A549 = not a hit in A549; hit in 1833 = not a hit in 1833.
Knock-down of DCLK2 gave: fold over scrambled siRNA, A549 = 0.667; fold over scrambled siRNA, 1833 = 1.52; hit in A549 = not a hit in A549; hit in 1833 = not a hit in 1833.
